Some of the results follow. These are further read-outs of the screen, such as a control signal, another cell line or another target. No call is given for them. The list favours compounds with an active or inconclusive main result. The note in brackets gives the kind of curve behind each potency; many fits are weak.

The assay in a line: Cell signaling CRE-BLA (Fsk stim). The conditions noted are these: CHO CRE-bla reporter (cAMP response element driving beta-lactamase), forskolin EC10, beta-lactamase ratio; measured here: 460 nm blue channel. In outline:
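Modulation of forskolin signalling: compounds in titration series added with EC10 NKH 477 to CHO cells carrying a CRE-driven beta-lactamase reporter, 3 h, 37C. CCF4 FRET ratio (460/530 nm, ex 405 nm) gives %activity and AC50.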
What is called AC50 is the concentration giving half of the maximal activity seen. Turning to `Cc1cccc(N2CCN(C(=O)CS(=O)(=O)Cc3nc(-c4ccccc4F)oc3C)CC2C)c1` (configuration not stated), the AC50 is 15.8 µM [falling, single point].
On to `COc1ccc(-c2cc3nc4c(c(=O)n3[nH]2)CCC4)cc1`, for which the AC50 was 25.1 µM [rising, single point].
For the compound `Cn1c(=O)c2sccc2n2c(CCCC(=O)NCc3ccc4c(c3)OCO4)nnc12`, the AC50 is 0.00316 µM [falling, full curve, poor fit].
The value for `COC(=O)[C@@]1(Cc2ccc(F)cc2)[C@H]2c3cc(C(=O)N4CCCC4)n(CCc4ccc(OC)c(Br)c4)c3C[C@H]2CN1C(=O)c1ccccc1` was 3.16 µM [rising, partial curve].
As to `C/C(=N\O)C(=O)C(CN1CCCCC1)CN1CCCCC1`, the AC50 is 3.16 µM [falling, full curve, poor fit].
Take `C=C[C@@]1(C)C=C2CC[C@@H]3[C@](C)(CCC[C@@]3(C)C(=O)O)[C@H]2CC1`: the AC50 is 12.6 µM [rising, single point].
`CCOC(=O)c1c(NC(=O)CSc2nc3cccnc3n2C)sc(C(C)=O)c1C`: the AC50 was 3.98 µM [rising, partial curve].
For the compound `N=C1C(c2nc(-c3ccc(F)cc3)cs2)=C(O)CN1CCCN1CCOCC1`, the AC50 was 5.01 µM [rising, single point].
`Cc1cccc(-n2ncc3c(Nc4ccc(F)cc4)ncnc32)c1`: the AC50 is 1 µM [rising, full curve, poor fit].
With `Cc1nc(N(C)C)c2sc(=S)n(C)c2n1`, the AC50 is 2.51 µM [rising, full curve].
Regarding `COC(=O)/C=C(\C)NC(=O)c1ccccc1Cl`, the AC50 is 15.8 µM [rising, single point].
On to `CCCOC(=O)c1ccc(Oc2cn[nH]c2-c2ccc(OC)cc2O)cc1`, for which the concentration at half-maximal activity (AC50) is 12.6 µM [falling, partial curve].
Consider `O=C(CCn1c(=O)oc2ccccc21)N1CCOCC1`, for which the AC50 was 3.16 µM [falling, full curve, poor fit].
For `COc1ccccc1Nc1nc2ccccc2[nH]1`, the AC50 was 5.01 µM [falling, partial curve, poor fit].
`CCn1c(=NC(=O)CSC(C)=O)sc2cc(OC)ccc21`: the AC50 is 10 µM [rising, single point].
On to `CCOC(=O)c1ccccc1NC(=O)c1ccccc1SC`, for which the AC50 was 25.1 µM [rising, single point].
Next, `FC(F)(F)c1ccccc1-c1nc(N2CCOCC2)c2ccccc2n1`: 3.16 µM [rising, full curve]; `O=c1cc(CN2CCN(c3ccccc3)CC2)c2cc(O)c(-c3ccccc3)cc2o1`: 0.631 µM [falling, partial curve]; `COC(=O)c1sc(N)c(C(=O)OC)c1CSc1nnnn1C`: 1 µM [falling, partial curve].
As for `Cc1cnc(CNc2cc(-c3cccc(C#N)c3)ncn2)cn1`, the AC50 was 7.94 µM [rising, partial curve].
In the case of `CCOCCCN1C(=O)CN(C2CCCCC2)C(=O)C1c1ccc(OCC)c(OC)c1` (configuration not stated), the AC50 was 3.98 µM [rising, full curve].
Consider `CCc1ccccc1NC(=O)CSc1nc2n[nH]c(C)c2c(=N)n1-c1ccc(OC)cc1`, for which the AC50 was 2 µM [rising, full curve].
For `COC(=O)c1ccc2c(=O)n(CCC3=CCCCC3)c(SCC(=O)N3CCCC3)nc2c1`, the half-maximal activity concentration (AC50) is 2.51 µM [rising, single point].
In the case of `CCOc1cc(-c2c(C#N)c(N)nc3c2CCCC3)ccc1O`, the AC50 was 5.01 µM [rising, full curve].
For `CCOc1nc(C)ccc1-c1noc(-c2ccccc2OC)n1`, the AC50 was 5.01 µM [falling, single point].
The value for `CCNc1ncc2nc(-c3cn(C)c4ccccc34)c(=O)n(CCC#N)c2n1` was 12.6 µM [rising, partial curve]; that for `COc1ccc(NC(=O)CCNC(=O)Cn2ccc3ccccc3c2=O)c(OC)c1` was 25.1 µM [rising, single point]; that for `CCOC(=O)c1nn(-c2ccc(OC)cc2)c(=O)c2c(NC(=O)c3ccco3)scc12` was 15.8 µM [rising, single point].
Regarding `COCCNC(=O)C(C#N)c1nc2ccccc2nc1N1CCCCCC1` (configuration not stated), the AC50 was 15.8 µM [rising, partial curve].
For `COc1cc(NS(C)(=O)=O)c(OC)cc1NC(=O)c1cccc(F)c1`, the AC50 is 12.6 µM [rising, single point].
For the compound `CN(C)c1ncc2nc(-c3cc(F)cc(F)c3)c(=O)n(Cc3cccs3)c2n1`, the AC50 is 5.01 µM [rising, partial curve].
`NC(=O)c1cnn2c(C(F)(F)F)cc(-c3ccc(F)cc3)nc12`: the half-maximal activity concentration (AC50) was 6.31 µM [rising, partial curve].
Take `COc1ccc(C2C(C#N)=C(N)OC3=C2C(=O)CC(C)(C)C3)c(OC)c1OC` (configuration not stated): the AC50 was 0.0631 µM [rising, full curve].
For the compound `CCSc1nc2cc(OC)c(OC)cc2c(=O)n1CC`, the AC50 is 10 µM [rising, partial curve].
As for `Cc1nn(-c2ccc3nnc(Br)n3n2)c(C)c1Br`, the half-maximal activity concentration (AC50) was 3.98 µM [falling, partial curve].
Regarding `CCCCc1ccc(NC(=O)C2CCCO2)cc1` (configuration not stated), the AC50 was 0.00316 µM [falling, full curve, poor fit].
In the case of `O=c1[nH]c2[nH]c(=S)[nH]c(=S)c2[nH]1`, the AC50 was 0.1 µM [rising, partial curve].
With `CC(=O)C1=C(C)NC(SCC(=O)c2ccc(F)cc2)=C(C#N)C1c1ccco1` (configuration not stated), the AC50 is 15.8 µM [rising, partial curve].
For `CCCC(c1nnnn1CS(=O)(=O)c1ccc(C)cc1)N1CCN(c2ccccc2)CC1` (configuration not stated), the AC50 was 25.1 µM [falling, partial curve].
Next, `Cc1ccc(OCC(=O)N2CCN(C(=O)CCC3CCCC3)CC2)cc1`: 1.26 µM [falling, full curve, poor fit]; `O=C(c1nnc(Cc2ccc(Cl)cc2)o1)N1CCc2ccccc2C1`: 25.1 µM [falling, single point]; `Cc1csc(SCC(=O)Nc2c(C)n(C)n(-c3ccccc3)c2=O)n1`: 5.01 µM [falling, full curve, poor fit].
Next, `O=C(O)CCC(=O)Nc1ccc2ccccc2c1`: 0.000794 µM [falling, full curve, poor fit]; `COc1ccc(CNc2ncncc2-c2cccc(C#N)c2)c(OC)c1`: 10 µM [rising, partial curve].
The value for `CSc1ncnc2nc[nH]c12` was 12.6 µM [rising, partial curve].
Turning to `CN(C)c1ncc2nc(-c3ccc(F)cc3)c(=O)n(CCC#N)c2n1`, the AC50 was 1 µM [rising, partial curve].
Turning to `Cc1csc(SCC(=O)N2CCN(S(=O)(=O)c3ccccc3)CC2)n1`, the AC50 was 5.01 µM [falling, single point].
Next, `COc1ccc(-c2noc(CSc3nc(-c4ccccc4)cc(=O)[nH]3)n2)cc1OC`: 0.00794 µM [rising, full curve, poor fit]; `Cn1c(=O)c2c(nc(SCCCO)n2Cc2ccccc2Cl)n(C)c1=O`: 12.6 µM [rising, single point]; `O=C(O)CCSCC(=O)c1ccc2c(c1)OCCO2`: 12.6 µM [falling, single point].
In the case of `COc1ccc(-n2c(=O)c(-c3ccc(F)cc3)nc3cnc(N4CCOCC4)nc32)cc1`, the concentration at half-maximal activity (AC50) is 3.16 µM [rising, full curve].
Consider `COc1ccc(Nc2nc(N)nc(CSc3n[nH]c(-c4ccccc4)n3)n2)cc1`, for which the AC50 is 0.316 µM [rising, full curve].
Consider `CN1CCN(c2ncc3nc(-c4cn(C)c5ccccc45)c(=O)n(CCC#N)c3n2)CC1`, for which the concentration at half-maximal activity (AC50) was 10 µM [rising, partial curve].
Consider `CCN1CCN(c2nc(-c3cccnc3)nc3ccccc23)CC1`, for which the AC50 was 12.6 µM [rising, single point].
The value for `CCc1ccc(-c2nc(CN3CCC(C(=O)NCc4ccco4)CC3)c(C)o2)cc1` was 0.0158 µM [falling, full curve, poor fit]; that for `COC(=O)c1c(C(=O)OC)c2cc(C)ccn2c1Cl` was 12.6 µM [rising, partial curve].
With `O=C(c1ccc2c(=O)n(CC3CCCO3)c(=S)[nH]c2c1)N1CCN(c2ccccc2)CC1` (configuration not stated), the AC50 was 0.501 µM [falling, partial curve].
Consider `O=C(NCc1ccco1)c1cnn2c1NC(c1ccc(Br)cc1)CC2C(F)(F)F` (configuration not stated), for which the AC50 is 10 µM [falling, single point].
For `FC(F)(F)c1cc(-c2ccco2)nc(-n2cnc3ccccc32)n1`, the AC50 is 0.00794 µM [falling, full curve, poor fit].
Next, `FC(F)(F)c1ccccc1-c1nc(NCCN2CCOCC2)c2ccccc2n1`: 5.01 µM [rising, single point]; `CCCCC(=NCCO)C1=C(O)C(C(=O)OC)C(C)(C)CC1=O` (configuration not stated): 1.26 µM [falling, partial curve]; `O=C(Cc1nc2ccccc2s1)c1ccc(O)cc1O`: 12.6 µM [rising, single point].
On to `CCCc1nc2ccccc2c(=O)n1/N=C/c1ccc(O)c(O)c1`, for which the AC50 was 3.98 µM [falling, full curve].
For the compound `COc1ccc(-c2cc(C(=O)NCCN3CCOCC3)c3ccccc3n2)c(OC)c1`, the AC50 is 25.1 µM [rising, single point].
With `COc1cccc(Cn2c(=O)c(-c3cccs3)nc3cnc(N(C)C)nc32)c1`, the AC50 was 5.01 µM [rising, partial curve].
The value for `COc1ncc2nc(CCc3ccccc3)c(=O)n(Cc3ccc(F)cc3)c2n1` was 12.6 µM [rising, partial curve]; that for `CCC(=O)NCCSc1c[nH]c2ccccc12` was 3.98 µM [falling, full curve, poor fit].

Source of the values: PubChem BioAssay AID662 (National Center for Advancing Translational Sciences (NCATS), 2007).
